From the supplement of paper PMC12067093, “Discovery and optimisation of a covalent ligand for TRIM25 and its application to targeted protein ubiquitination” (Chemical Science, 2025)
The other results are listed elsewhere or left out.

Protein sequences, listed by entry. Tags and fused reporters are not part of them. Lines headed by an entry give the natural chain unless they say otherwise; changes in a name come on top.
UniProt P29590: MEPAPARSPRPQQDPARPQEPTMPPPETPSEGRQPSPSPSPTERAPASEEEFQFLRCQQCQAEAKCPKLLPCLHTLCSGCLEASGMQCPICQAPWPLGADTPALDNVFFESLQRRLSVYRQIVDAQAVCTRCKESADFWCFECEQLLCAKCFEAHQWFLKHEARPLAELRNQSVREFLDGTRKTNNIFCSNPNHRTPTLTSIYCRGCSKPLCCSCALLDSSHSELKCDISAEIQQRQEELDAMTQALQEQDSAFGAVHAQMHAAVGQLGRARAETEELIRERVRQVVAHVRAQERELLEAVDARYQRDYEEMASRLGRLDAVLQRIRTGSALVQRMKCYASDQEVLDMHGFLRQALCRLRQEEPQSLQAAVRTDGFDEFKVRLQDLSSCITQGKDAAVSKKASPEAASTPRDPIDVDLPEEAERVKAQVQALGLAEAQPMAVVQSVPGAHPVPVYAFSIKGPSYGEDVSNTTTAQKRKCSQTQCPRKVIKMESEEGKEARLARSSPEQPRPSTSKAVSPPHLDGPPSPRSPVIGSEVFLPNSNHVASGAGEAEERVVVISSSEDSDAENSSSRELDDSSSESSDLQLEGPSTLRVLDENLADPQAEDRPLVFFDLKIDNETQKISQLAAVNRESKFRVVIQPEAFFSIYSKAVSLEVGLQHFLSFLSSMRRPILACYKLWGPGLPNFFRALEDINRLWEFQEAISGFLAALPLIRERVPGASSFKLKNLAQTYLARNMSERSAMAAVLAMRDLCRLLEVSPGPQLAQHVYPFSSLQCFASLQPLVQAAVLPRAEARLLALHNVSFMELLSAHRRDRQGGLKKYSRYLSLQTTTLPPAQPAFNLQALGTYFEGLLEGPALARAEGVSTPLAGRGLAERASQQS
UniProt Q96BZ4: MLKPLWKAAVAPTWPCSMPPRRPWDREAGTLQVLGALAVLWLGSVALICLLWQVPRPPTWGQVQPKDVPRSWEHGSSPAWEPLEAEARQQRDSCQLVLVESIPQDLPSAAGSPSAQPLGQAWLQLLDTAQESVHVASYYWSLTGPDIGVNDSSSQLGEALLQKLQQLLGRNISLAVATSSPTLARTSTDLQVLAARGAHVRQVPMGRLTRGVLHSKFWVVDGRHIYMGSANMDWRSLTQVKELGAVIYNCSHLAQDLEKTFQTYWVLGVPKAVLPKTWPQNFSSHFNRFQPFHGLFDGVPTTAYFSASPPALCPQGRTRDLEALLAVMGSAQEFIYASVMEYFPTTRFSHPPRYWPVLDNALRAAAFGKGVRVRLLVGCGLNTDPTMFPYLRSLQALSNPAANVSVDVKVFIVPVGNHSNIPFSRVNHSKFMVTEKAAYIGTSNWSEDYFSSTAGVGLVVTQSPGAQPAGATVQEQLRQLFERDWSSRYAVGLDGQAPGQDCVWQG
UniProt P16885: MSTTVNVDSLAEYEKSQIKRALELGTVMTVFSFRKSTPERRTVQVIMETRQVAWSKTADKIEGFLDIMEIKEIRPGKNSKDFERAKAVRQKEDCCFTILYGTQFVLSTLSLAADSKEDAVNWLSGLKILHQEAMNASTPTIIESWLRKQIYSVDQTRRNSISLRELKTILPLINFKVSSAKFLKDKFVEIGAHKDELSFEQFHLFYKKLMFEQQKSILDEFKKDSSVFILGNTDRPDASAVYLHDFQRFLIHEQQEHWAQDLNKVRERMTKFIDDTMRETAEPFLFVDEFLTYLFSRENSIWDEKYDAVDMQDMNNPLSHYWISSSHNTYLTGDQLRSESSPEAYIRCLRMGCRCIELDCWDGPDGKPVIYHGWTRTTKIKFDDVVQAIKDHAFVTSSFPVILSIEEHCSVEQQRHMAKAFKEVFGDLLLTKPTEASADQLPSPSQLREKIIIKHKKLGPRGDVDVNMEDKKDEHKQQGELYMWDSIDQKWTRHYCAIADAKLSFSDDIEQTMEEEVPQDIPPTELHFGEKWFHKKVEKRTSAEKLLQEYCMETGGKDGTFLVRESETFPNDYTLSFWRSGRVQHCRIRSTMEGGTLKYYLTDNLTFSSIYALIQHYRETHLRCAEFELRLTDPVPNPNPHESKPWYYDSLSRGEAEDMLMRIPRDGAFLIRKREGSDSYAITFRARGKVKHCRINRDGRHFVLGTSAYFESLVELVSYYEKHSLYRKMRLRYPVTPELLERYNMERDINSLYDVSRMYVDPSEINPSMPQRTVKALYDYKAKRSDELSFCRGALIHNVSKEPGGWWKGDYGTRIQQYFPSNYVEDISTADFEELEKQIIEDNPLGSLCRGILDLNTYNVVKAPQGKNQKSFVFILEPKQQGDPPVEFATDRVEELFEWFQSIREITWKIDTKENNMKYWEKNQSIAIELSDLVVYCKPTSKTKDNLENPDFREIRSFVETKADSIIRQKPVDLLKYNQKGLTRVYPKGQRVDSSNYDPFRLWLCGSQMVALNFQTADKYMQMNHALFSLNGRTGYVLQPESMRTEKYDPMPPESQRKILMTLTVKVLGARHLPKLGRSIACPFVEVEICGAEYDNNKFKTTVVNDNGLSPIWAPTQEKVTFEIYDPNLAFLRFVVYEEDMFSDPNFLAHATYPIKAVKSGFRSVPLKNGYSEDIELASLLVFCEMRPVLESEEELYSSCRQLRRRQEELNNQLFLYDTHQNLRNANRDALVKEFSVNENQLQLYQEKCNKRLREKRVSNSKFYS
UniProt O60664: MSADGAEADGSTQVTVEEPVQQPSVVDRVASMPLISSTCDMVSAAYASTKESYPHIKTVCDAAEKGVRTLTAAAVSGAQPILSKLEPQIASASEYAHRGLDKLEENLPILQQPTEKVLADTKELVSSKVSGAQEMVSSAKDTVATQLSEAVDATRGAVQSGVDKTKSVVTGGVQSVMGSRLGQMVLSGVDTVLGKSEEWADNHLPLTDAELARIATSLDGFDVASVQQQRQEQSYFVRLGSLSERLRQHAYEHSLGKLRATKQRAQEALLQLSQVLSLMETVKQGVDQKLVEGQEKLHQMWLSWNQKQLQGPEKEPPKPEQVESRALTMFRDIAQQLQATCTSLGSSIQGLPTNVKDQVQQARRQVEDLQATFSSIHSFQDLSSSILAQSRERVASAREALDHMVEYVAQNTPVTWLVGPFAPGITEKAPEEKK
UniProt Q9NVS9: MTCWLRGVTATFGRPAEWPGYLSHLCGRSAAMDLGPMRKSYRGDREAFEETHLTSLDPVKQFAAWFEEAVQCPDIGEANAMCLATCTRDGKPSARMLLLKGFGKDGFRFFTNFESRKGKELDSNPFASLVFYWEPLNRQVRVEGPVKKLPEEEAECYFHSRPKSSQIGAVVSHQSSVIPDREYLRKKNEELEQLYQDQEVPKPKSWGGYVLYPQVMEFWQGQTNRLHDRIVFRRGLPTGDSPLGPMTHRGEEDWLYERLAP
UniProt O60331: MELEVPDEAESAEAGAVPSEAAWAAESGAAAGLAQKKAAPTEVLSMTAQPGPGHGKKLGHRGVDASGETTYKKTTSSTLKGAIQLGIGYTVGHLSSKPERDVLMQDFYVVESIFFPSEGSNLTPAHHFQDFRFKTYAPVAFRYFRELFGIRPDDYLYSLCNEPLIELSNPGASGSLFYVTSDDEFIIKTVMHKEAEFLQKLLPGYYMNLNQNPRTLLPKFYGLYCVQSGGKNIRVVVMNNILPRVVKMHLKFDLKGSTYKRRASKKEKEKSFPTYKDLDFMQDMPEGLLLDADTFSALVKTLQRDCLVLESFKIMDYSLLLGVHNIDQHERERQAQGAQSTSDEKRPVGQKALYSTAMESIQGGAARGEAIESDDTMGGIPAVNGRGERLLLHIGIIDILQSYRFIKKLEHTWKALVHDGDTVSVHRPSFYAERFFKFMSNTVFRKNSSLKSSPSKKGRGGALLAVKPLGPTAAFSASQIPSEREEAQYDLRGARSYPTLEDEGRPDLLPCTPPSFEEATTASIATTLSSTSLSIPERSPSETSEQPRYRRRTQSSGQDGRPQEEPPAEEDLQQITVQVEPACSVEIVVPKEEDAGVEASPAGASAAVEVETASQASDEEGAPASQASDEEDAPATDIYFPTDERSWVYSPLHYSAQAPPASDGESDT
UniProt P08567: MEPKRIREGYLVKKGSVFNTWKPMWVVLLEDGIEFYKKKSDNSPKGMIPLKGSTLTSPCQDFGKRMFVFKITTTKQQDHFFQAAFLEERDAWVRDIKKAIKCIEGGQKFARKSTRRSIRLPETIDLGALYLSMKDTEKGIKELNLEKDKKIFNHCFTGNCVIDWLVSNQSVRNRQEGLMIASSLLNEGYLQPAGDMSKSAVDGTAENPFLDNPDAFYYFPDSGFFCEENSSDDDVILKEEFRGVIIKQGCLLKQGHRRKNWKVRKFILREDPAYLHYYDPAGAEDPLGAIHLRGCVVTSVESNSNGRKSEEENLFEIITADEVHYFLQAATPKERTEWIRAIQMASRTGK
UniProt Q16513: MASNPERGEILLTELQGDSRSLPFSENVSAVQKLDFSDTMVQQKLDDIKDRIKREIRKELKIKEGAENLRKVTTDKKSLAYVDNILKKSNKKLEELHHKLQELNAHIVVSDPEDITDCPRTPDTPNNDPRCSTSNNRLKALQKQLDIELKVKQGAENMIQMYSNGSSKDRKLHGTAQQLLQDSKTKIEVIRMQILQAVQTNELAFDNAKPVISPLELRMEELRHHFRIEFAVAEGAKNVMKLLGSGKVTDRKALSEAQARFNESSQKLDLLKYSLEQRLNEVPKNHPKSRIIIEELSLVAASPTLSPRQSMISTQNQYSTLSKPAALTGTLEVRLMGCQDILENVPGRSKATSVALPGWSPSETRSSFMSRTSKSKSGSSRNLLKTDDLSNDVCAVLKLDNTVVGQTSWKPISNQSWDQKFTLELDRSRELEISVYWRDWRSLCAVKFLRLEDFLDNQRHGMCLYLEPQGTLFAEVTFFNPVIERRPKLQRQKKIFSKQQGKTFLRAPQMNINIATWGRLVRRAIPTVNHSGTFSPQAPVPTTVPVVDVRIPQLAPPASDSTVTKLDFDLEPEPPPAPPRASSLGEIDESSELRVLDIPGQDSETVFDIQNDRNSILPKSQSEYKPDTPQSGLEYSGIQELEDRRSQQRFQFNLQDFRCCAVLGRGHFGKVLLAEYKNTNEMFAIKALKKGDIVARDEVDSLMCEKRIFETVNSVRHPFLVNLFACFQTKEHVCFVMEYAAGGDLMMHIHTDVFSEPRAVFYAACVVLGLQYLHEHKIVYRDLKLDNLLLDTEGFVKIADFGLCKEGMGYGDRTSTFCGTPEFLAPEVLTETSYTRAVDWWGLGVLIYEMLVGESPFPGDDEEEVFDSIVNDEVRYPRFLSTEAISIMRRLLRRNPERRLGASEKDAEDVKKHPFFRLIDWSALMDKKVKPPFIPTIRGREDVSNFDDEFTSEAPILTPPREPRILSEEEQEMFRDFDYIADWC
UniProt O60568: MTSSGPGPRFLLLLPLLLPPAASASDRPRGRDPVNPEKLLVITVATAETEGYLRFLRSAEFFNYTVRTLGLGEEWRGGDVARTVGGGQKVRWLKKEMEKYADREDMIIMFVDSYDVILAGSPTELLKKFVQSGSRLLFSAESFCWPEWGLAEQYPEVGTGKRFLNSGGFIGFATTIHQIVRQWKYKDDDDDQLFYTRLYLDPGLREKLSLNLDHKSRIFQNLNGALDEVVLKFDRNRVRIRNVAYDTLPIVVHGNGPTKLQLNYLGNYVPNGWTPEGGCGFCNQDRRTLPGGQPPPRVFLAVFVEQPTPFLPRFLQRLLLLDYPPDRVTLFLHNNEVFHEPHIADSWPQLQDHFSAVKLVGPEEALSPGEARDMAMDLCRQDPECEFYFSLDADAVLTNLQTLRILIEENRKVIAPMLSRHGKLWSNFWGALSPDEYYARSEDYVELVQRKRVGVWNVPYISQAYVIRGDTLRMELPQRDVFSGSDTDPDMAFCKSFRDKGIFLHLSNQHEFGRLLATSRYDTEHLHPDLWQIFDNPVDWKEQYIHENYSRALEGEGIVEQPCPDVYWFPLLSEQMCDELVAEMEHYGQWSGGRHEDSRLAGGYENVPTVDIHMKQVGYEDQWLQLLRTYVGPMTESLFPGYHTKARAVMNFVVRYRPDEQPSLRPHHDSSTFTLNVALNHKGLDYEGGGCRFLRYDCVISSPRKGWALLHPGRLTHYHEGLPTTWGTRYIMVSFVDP
UniProt Q8N490: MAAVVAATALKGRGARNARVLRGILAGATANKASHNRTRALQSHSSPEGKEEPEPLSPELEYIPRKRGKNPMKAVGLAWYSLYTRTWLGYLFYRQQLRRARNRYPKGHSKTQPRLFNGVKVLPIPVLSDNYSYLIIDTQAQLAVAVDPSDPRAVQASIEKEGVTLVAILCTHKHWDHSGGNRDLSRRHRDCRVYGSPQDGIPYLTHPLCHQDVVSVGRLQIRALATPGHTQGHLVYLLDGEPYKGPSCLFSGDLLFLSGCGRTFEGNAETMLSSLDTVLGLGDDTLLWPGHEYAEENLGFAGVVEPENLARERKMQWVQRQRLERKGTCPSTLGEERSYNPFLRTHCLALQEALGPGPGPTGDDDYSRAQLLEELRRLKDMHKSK

Compound: Cc1cc(ccc1-c1ccccc1)C(=O)N1CCCN(CC1)C(=O)CCl [compound 10]
Assay: probe-labelled cysteine peptide fold change vs DMSO (competition) (log2 fold change); higher = less target engagement (more negative = stronger competition)
Conditions: THP-1, incubation time: 4 h
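Further: competitive profiling in live THP-1 cells: cysteine peptides tagged with an iodoacetamide desthiobiotin (IA-DTB) probe, intensity after compound treatment relative to DMSO-treated cells.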

Target | probe-labelled cysteine peptide fold change (10 µM) | probe-labelled cysteine peptide fold change (50 µM)
PML_P29590_204_TPTLTSIYCR (UniProt P29590) | -0.0612 | -0.396
PLCB3_Q01970_1176_LLAQLAQECQEQR (UniProt Q01970) | 0.3 | 0.18
PLD4_Q96BZ4_313_FQPFHGLFDGVPTTAYFSASPPALCPQGR (UniProt Q96BZ4) | 0.117 | -0.188
PLCG2_P16885_409_DHAFVTSSFPVILSIEEHCSVEQQR (UniProt P16885) | 0.178 | 0.433
PLIN3_O60664_341_DIAQQLQATCTSLGSSIQGLPTNVK (UniProt O60664) | 0.208 | -0.0769
PNPO_Q9NVS9_156_KLPEEEAECYFHSR (UniProt Q9NVS9) | -0.0304 | -0.173
PIP5K1C_O60331_306_DCLVLESFK (UniProt O60331) | -0.116 | -0.134
PKN1_Q16512_442_GLCALK (UniProt Q16512) | 0.0772 | 0.0488
PITPNB_P48739_13_VVLPCSVQEYQVGQLYSVAEASK (UniProt P48739) | -0.0113 | 0.103
PMS1_P54277_725_DEPCLIHNLR (UniProt P54277) | -0.316 | -0.756
PLEC_Q15149_3336_CRPDQLTGLSLLPLSEK (UniProt Q15149) | -0.196 | -0.0466
PLCG2_P16885_496_HYCAIADAK (UniProt P16885) | -0.0625 | 0.0844
PLEK_P08567_295_GCVVTSVESNSNGR (UniProt P08567) | -0.14 | -0.138
PLD4_Q96BZ4_379_LLVGCGLNTDPTMFPYLR (UniProt Q96BZ4) | -0.0446 | -0.0242
PLEK_P08567_59_GSTLTSPCQDFGK (UniProt P08567) | -0.108 | 0.119
PLAA_Q9Y263_631_HPSVNENFCNEK (UniProt Q9Y263) | -0.0346 | -0.0185
PLEKHM2_Q8IWE5_28_KLQSYFAACEDEIPAIR (UniProt Q8IWE5) | 0.132 | 0.0139

Target | probe-labelled cysteine peptide fold change (10 µM) | probe-labelled cysteine peptide fold change (50 µM)
PKN2_Q16513_704_DEVDSLMCEK (UniProt Q16513) | -0.103 | -0.0158
PMVK_Q15126_92_RQADPGFFCR (UniProt Q15126) | -0.0632 | -0.151
PLCG2_P16885_360_CIELDCWDGPDGKPVIYHGWTR (UniProt P16885) | -0.166 | -0.0385
PLIN3_O60664_60_TVCDAAEK (UniProt O60664) | 0.0803 | -0.266
PLOD3_O60568_379_DMAMDLCR (UniProt O60568) | 0.408 | -0.161
PML_P29590_479_CSQTQCPR (UniProt P29590) | -0.126 | -0.65
PNO1_Q9NRX1_226_TAICNLILGNPPSK (UniProt Q9NRX1) | 0.0956 | -0.0122
PKN2_Q16513_394_TDDLSNDVCAVLK (UniProt Q16513) | -0.165 | 0.0498
PLBD2_Q8NHP8_244_IKPSLGSGSCSALIK (UniProt Q8NHP8) | -0.294 | -0.376
PMM2_O15305_136_SCSQEER (UniProt O15305) | 0.442 | 0.918
PNKD_Q8N490_329_KGTCPSTLGEER (UniProt Q8N490) | -0.157 | 0.0597
PNKP_Q96T60_409_CVTTCETALK (UniProt Q96T60) | -0.0957 | -0.0399
PLEKHG4_Q58EX7_917_HGNDLLAMDAIQGCDVNLK (UniProt Q58EX7) | -0.0848 | -0.216
PLEC_Q15149_950_GRLPLLAVCDYK (UniProt Q15149) | 0.0593 | -0.129
PKM_P14618_474_GIFPVLCKDPVQEAWAEDVDLR (UniProt P14618) | -0.0504 | -0.646
PLEC_Q15149_1098_EYGSCSHHYQQLLQSLEQGAQEESR (UniProt Q15149) | -0.125 | -0.103
PIK3R4_Q99570_955_EQCNAER (UniProt Q99570) | -0.112 | -0.0289

Looked up one by one from the entries so far, two records:
Target | probe-labelled cysteine peptide fold change (10 µM) | probe-labelled cysteine peptide fold change (50 µM)
PLEC_Q15149_1098_EYGSCSHHYQQLLQSLEQGAQEESR (UniProt Q15149) | -0.125 | -0.103
PKN2_Q16513_704_DEVDSLMCEK (UniProt Q16513) | -0.103 | -0.0158
